PubChem BioAssay AID1259308 | NCATS, 2017
Test: 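Genes whose loss raises luciferase production in HEK293 cells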 (primary screen). Cells: human HEK293 embryonic kidney cells stably expressing firefly luciferase (HEK-CMV-Luc2-Hygro). Reagents: single siRNA against human genes, 0.8 pmol siRNA per well. Duration: 72 h. Measured: 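Luciferase light (ONE-Glo) measured on one replicate plate set and viability (CellTiter-Glo) on the other, scaled to a negative control siRNA, with robust z-scores and luciferase per cell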. Direction: total luciferase, z-score: higher = more reporter protein produced. Rule for the call: 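Active when the median/MAD z-score for overall luciferase is greater than 3; a gene was taken forward for validation with new siRNAs if at least two of its three siRNAs passed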. Calls: active = raised luciferase; inactive = no rise.
The deposit covers about 59,000 reagents; this is an unselected part. Over the whole deposit, about 1,510 (2.6%) got an active call. 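Calls use total luciferase alone and ignore viability, so some active siRNAs may act by altering cell number.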 Reagents against one gene are numbered here. Further read-outs or replicates are left out here.

ZNF320 (GeneID 162967) #1: total luciferase, z-score = 0.768; activity call = inactive
ZNF320 (GeneID 162967) #2: total luciferase, z-score = 0.408; activity call = inactive
ZNF320 (GeneID 162967) #3: total luciferase, z-score = 0.231; activity call = inactive
CEACAM7 (GeneID 1087) #1: total luciferase, z-score = -1.71; activity call = inactive
CEACAM7 (GeneID 1087) #2: total luciferase, z-score = -1.01; activity call = inactive
CEACAM7 (GeneID 1087) #3: total luciferase, z-score = 1.49; activity call = inactive
CCDC154 (GeneID 645811) #1: total luciferase, z-score = 0.135; activity call = inactive
CCDC154 (GeneID 645811) #2: total luciferase, z-score = -0.607; activity call = inactive
CCDC154 (GeneID 645811) #3: total luciferase, z-score = 1.69; activity call = inactive
RBMS3 (GeneID 27303) #1: total luciferase, z-score = 0.393; activity call = inactive
RBMS3 (GeneID 27303) #2: total luciferase, z-score = -0.393; activity call = inactive
RBMS3 (GeneID 27303) #3: total luciferase, z-score = -0.66; activity call = inactive
EGFL7 (GeneID 51162) #1: total luciferase, z-score = 0.124; activity call = inactive
EGFL7 (GeneID 51162) #2: total luciferase, z-score = -0.128; activity call = inactive
EGFL7 (GeneID 51162) #3: total luciferase, z-score = 3.21; activity call = active
LOC400870 (retired record) (GeneID 400870) #1: total luciferase, z-score = 0.612; activity call = inactive
LOC400870 (retired record) (GeneID 400870) #2: total luciferase, z-score = 0.138; activity call = inactive
LOC400870 (retired record) (GeneID 400870) #3: total luciferase, z-score = -0.227; activity call = inactive
AIP (GeneID 9049) #1: total luciferase, z-score = 0.375; activity call = inactive
AIP (GeneID 9049) #2: total luciferase, z-score = 0.355; activity call = inactive
AIP (GeneID 9049) #3: total luciferase, z-score = 3.46; activity call = active
OSTCP2 (GeneID 646567) #1: total luciferase, z-score = -0.195; activity call = inactive
OSTCP2 (GeneID 646567) #2: total luciferase, z-score = 0.0995; activity call = inactive
OSTCP2 (GeneID 646567) #3: total luciferase, z-score = 0.626; activity call = inactive
MRAS (GeneID 22808) #1: total luciferase, z-score = -0.0195; activity call = inactive
MRAS (GeneID 22808) #2: total luciferase, z-score = -0.938; activity call = inactive
MRAS (GeneID 22808) #3: total luciferase, z-score = -0.435; activity call = inactive
CERT1 (GeneID 10087) #1: total luciferase, z-score = 0.0696; activity call = inactive
CERT1 (GeneID 10087) #2: total luciferase, z-score = -0.102; activity call = inactive
CERT1 (GeneID 10087) #3: total luciferase, z-score = -0.598; activity call = inactive
NTPCR (GeneID 84284) #1: total luciferase, z-score = -0.822; activity call = inactive
NTPCR (GeneID 84284) #2: total luciferase, z-score = 0.679; activity call = inactive
NTPCR (GeneID 84284) #3: total luciferase, z-score = -0.634; activity call = inactive

Quoted from above, 4 entries:
ZNF320 (GeneID 162967) #1: total luciferase, z-score = 0.768; activity call = inactive
ZNF320 (GeneID 162967) #2: total luciferase, z-score = 0.408; activity call = inactive
ZNF320 (GeneID 162967) #3: total luciferase, z-score = 0.231; activity call = inactive
CEACAM7 (GeneID 1087) #1: total luciferase, z-score = -1.71; activity call = inactive
